Measurements reported in PubChem BioAssay AID1259308 (NCATS, 2017)
Aim: 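Candidate targets for better recombinant protein yield in mammalian cells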 (primary screen). System: human HEK293 embryonic kidney cells stably expressing firefly luciferase (HEK-CMV-Luc2-Hygro). Reagent: single siRNA against human genes, 0.8 pmol siRNA per well. Time to read-out: 72 h. Detection: 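Luciferase light (ONE-Glo) measured on one replicate plate set and viability (CellTiter-Glo) on the other, scaled to a negative control siRNA, with robust z-scores and luciferase per cell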. Direction: total luciferase, z-score and total luciferase, % of control: higher = more reporter protein produced. Rule for the call: 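An siRNA counts as active if its total luciferase robust z-score exceeds 3; genes with two or more such siRNAs out of three were retested with fresh siRNAs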. Meaning of the calls: active = raised luciferase; inactive = no rise.
Shown is a random part of about 59,000 reagents. In the full data, about 1,510 (2.6%) were called active. 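Calls use total luciferase alone and ignore viability, so some active siRNAs may act by altering cell number.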 A number with no mark means an inactive call. The numbers tell different reagents against one gene apart. Not all columns of the deposit are shown.

EVPL #1 gave total luciferase, z-score -0.0852; total luciferase, % of control 80.2. EVPL #2 scored total luciferase, z-score 1.44; total luciferase, % of control 111. With knock-down of EVPL #3, the screen gave total luciferase, z-score 0.193; total luciferase, % of control 85.7. Against RETN #1 the deposit lists total luciferase, z-score -0.0962; total luciferase, % of control 80. Knock-down of RETN #2 gave: total luciferase, z-score -0.967; total luciferase, % of control 62.6. Knock-down of RETN #3 came out at: total luciferase, z-score 2.1; total luciferase, % of control 124.

A stretch from the list above:
RETN #2 — total luciferase, z-score: -0.967; total luciferase, % of control: 62.6
RETN #3 — total luciferase, z-score: 2.1; total luciferase, % of control: 124

Additional reagents:
For TWIST2 #1, the values are total luciferase, z-score -1.45; total luciferase, % of control 53.1. Against TWIST2 #2, the entry reads total luciferase, z-score -1.43; total luciferase, % of control 53.4. After knock-down of TWIST2 #3 the results were total luciferase, z-score 0.096; total luciferase, % of control 83.8. SLCO1A2 #1 showed total luciferase, z-score -0.25; total luciferase, % of control 76.9. With knock-down of SLCO1A2 #2, the record shows total luciferase, z-score -0.212; total luciferase, % of control 77.7. SLCO1A2 #3 showed total luciferase, z-score 0.801; total luciferase, % of control 97.8.
